23 targets from the supplement of paper PMC10849652 can be followed below.

Sequences of proteins named here, by UniProt entry; tags and fusion partners are left off. A change or cut given only in a name is not applied to a line headed by its entry.
UniProt Q96AN5: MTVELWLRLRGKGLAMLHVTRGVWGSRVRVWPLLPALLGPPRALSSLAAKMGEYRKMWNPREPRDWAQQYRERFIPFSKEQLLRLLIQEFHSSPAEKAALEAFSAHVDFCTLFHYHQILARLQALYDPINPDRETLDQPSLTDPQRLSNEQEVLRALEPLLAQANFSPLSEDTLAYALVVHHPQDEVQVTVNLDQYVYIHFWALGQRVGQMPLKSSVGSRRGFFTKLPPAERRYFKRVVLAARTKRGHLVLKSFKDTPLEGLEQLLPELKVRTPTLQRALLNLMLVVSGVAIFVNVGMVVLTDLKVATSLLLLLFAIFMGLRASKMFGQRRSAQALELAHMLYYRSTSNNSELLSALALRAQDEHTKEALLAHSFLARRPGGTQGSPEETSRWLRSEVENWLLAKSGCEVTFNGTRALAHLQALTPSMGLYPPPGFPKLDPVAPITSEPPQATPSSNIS
UniProt Q9BVT8: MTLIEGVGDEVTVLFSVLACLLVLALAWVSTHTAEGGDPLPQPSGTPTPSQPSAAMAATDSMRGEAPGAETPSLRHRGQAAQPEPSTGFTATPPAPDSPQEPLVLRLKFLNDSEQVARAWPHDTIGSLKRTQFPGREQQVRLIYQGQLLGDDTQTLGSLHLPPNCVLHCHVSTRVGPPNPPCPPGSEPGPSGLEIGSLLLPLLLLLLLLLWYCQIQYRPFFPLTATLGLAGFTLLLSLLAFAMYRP
UniProt Q5BJD5: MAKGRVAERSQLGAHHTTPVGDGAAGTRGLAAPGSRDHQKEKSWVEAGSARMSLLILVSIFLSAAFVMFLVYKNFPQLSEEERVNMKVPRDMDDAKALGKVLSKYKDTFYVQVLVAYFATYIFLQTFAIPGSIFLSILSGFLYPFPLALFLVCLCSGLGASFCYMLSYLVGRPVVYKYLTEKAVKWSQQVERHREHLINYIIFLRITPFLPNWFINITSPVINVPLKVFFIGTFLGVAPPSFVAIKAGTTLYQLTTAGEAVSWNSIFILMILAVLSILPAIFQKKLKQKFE
UniProt Q8IUX1: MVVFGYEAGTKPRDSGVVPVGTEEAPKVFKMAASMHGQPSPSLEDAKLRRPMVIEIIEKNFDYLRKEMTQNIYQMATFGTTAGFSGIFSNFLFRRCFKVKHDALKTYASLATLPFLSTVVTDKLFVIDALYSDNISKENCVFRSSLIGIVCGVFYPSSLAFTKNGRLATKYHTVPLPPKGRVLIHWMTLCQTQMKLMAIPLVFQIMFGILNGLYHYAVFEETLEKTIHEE
UniProt Q96I45: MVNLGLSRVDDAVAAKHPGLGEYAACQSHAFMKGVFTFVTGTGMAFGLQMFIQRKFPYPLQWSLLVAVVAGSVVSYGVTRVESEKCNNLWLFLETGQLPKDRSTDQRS
UniProt Q8N511: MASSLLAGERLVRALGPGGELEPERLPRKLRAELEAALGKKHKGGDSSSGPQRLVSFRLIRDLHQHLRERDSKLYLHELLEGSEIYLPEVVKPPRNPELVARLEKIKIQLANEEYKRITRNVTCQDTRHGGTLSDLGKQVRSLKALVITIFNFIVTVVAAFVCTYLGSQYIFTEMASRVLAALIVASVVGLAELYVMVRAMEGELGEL
UniProt P63313: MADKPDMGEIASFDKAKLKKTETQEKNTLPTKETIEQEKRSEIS
UniProt Q9BVK6: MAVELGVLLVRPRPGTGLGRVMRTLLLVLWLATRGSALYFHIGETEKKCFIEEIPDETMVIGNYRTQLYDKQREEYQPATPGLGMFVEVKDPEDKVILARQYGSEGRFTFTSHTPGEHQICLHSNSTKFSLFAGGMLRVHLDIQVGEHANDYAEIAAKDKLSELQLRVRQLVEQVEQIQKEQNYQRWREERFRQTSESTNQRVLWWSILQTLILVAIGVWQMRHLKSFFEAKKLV
UniProt P49755: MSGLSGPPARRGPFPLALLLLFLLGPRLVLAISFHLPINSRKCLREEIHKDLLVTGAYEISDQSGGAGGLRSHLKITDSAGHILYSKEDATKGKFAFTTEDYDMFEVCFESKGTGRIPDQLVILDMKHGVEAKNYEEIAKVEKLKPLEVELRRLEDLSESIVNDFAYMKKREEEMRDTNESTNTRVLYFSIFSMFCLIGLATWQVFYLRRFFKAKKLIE
UniProt Q13829: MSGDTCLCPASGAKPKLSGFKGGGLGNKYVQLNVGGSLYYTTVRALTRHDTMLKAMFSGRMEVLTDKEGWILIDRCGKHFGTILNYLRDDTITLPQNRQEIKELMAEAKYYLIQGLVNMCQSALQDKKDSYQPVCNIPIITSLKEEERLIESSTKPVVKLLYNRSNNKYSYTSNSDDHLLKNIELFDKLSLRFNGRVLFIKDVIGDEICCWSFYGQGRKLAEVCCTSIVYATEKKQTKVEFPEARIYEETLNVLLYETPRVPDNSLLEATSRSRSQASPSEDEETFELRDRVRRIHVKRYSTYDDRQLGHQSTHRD
UniProt P28289: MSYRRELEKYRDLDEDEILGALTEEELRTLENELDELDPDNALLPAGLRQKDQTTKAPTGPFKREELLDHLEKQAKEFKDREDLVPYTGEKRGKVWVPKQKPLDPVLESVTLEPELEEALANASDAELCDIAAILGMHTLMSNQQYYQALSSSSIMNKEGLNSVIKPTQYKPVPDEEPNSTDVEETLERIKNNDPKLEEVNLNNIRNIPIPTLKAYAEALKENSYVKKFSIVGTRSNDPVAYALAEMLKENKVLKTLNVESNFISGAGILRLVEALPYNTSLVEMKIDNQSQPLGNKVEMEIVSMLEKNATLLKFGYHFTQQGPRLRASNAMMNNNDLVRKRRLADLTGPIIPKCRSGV
UniProt Q9P2C4: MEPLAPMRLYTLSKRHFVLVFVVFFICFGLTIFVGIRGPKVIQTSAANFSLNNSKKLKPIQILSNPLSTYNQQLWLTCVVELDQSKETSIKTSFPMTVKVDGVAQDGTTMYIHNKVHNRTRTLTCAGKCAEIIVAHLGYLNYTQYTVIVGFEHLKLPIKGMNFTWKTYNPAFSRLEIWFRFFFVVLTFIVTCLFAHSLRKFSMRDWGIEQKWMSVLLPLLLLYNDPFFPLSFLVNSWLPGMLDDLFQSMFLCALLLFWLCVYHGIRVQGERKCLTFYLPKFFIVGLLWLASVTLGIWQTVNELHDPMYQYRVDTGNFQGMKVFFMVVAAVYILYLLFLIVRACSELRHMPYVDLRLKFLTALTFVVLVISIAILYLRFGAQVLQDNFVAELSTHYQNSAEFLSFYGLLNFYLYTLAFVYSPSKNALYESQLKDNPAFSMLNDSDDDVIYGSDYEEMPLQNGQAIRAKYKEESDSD
UniProt Q9P0S9: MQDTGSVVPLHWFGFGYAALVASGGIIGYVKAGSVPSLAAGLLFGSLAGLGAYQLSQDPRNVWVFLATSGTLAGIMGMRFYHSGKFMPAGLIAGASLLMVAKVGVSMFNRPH
UniProt Q8TDI8: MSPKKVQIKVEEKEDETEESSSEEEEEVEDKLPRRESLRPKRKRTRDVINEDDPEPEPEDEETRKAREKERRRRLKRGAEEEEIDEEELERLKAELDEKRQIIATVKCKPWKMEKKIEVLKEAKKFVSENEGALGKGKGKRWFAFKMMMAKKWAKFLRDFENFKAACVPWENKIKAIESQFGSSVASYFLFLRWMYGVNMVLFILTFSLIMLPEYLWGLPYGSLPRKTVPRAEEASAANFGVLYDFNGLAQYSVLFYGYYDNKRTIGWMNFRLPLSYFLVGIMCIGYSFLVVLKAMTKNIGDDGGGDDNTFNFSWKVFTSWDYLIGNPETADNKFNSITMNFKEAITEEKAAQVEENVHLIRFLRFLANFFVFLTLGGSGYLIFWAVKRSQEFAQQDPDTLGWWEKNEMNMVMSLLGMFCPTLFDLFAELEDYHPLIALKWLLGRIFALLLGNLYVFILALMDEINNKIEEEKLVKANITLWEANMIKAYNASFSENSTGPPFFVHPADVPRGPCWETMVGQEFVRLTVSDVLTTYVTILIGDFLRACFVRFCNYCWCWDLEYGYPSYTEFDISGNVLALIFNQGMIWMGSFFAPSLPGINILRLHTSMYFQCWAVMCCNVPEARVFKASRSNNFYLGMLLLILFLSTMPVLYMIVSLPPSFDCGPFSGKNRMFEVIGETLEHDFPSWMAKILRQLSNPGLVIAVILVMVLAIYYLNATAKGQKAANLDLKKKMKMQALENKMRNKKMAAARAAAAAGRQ
UniProt Q9NWH2: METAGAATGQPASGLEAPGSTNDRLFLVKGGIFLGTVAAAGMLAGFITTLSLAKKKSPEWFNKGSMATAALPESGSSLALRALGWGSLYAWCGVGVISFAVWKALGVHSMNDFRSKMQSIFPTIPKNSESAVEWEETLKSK
UniProt Q96SK2: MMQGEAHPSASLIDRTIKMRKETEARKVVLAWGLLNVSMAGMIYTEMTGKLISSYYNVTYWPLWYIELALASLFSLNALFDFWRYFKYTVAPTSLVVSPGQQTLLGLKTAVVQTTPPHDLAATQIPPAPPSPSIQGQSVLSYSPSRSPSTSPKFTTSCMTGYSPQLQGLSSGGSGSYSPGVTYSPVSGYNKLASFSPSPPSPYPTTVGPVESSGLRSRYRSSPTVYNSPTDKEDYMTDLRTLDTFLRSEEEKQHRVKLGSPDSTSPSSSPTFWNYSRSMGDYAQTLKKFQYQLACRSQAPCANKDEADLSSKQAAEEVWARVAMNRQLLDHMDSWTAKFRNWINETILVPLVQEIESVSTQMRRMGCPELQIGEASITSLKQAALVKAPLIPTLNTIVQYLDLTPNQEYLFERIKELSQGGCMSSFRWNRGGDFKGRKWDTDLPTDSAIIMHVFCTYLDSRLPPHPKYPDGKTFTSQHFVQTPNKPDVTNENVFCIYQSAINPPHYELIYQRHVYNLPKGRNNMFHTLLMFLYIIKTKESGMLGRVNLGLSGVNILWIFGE
UniProt Q9BTV4: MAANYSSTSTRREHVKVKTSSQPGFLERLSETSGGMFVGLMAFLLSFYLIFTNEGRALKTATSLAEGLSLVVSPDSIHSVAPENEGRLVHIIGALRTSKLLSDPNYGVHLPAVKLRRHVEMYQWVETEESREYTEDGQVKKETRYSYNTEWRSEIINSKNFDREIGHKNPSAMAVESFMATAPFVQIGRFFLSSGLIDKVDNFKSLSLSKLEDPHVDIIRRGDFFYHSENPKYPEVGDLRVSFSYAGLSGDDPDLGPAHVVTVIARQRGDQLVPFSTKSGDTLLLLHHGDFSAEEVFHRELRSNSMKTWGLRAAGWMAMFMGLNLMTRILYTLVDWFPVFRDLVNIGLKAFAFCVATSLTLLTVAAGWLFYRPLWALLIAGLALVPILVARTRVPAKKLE
UniProt P57088: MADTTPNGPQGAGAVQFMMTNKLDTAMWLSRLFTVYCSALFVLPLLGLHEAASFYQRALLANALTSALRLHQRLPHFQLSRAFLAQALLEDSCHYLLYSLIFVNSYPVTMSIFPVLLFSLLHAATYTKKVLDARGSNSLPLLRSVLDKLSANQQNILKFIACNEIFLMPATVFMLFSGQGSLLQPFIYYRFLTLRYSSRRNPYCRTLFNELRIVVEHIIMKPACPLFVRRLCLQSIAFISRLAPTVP
UniProt Q9NX00: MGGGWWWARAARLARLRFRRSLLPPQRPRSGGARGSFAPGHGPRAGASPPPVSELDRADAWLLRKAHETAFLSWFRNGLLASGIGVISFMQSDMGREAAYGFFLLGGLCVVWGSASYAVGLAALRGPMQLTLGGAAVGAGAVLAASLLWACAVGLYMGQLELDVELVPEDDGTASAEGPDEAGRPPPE
UniProt Q7Z7H5: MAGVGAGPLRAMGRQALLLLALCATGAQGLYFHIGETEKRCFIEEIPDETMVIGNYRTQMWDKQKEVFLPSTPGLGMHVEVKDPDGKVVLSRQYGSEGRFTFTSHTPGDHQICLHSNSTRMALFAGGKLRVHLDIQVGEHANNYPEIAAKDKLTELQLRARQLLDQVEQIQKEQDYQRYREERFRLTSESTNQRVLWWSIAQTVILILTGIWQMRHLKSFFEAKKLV
UniProt A5PLL7: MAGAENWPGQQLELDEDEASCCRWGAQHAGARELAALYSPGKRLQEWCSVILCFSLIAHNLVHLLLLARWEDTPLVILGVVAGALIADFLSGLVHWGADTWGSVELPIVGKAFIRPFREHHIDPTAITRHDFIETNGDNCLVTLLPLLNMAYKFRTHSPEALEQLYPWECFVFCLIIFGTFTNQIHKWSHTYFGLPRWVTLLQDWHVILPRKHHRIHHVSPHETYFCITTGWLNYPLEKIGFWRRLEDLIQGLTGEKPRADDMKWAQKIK

The list shows a part of the results.

Compound in the experiment: c1cn2cc(-c3ccc4cn[nH]c4c3)nc(Nc3ccc(N4CCOCC4)cc3)c2n1 [entospletinib]
Kind of experiment: log2 fold change, soluble protein after heating vs DMSO (PISA); higher = thermal stabilisation; K562 cells, 10 uM, 30 min; active = over 0.2 and 3.5 SD of the protein, either way, in both replicates (recomputed). Summed up: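 K562 cells at 2×10^6 cells/mL were given 10 μM compound for 30 min. Aliquots then went through 3 min of heating across 48°C-58°C, were pooled, and were extracted in PBS with 0.5% NP-40 at 4°C, and the supernatant after 21,000xg for 90 min was quantified by TMTpro 16plex LC-MS/MS with channel sums equalised. Thermal stability relative to control samples, from duplicates, is given as log2 fold change.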
Turning to TMEM143 (UniProt Q96AN5), the log2 fold change is inactive: -0.075.

As to TMUB1 (UniProt Q9BVT8), the log2 fold change is inactive: -0.076.

TMEM167B (UniProt Q9NRX6): the log2 fold change is inactive: 0.025.

Consider TMEM41B (UniProt Q5BJD5), for which the log2 fold change is inactive: 0.003.

For the target TMEM126B (UniProt Q8IUX1), the log2 fold change is inactive: 0.014.

Consider TMEM141 (UniProt Q96I45), for which the log2 fold change was inactive: -0.113.

In the case of TMA16 (UniProt Q96EY4), the log2 fold change is inactive: 0.063.

For the target TMEM199 (UniProt Q8N511), the log2 fold change is inactive: -0.015.

Turning to TMSB10 (UniProt P63313), the log2 fold change is inactive: 0.065.

In the case of TMED9 (UniProt Q9BVK6), the log2 fold change is inactive: 0.008.

Turning to TMED10 (UniProt P49755), the log2 fold change was inactive: 0.036.

For the target TNFAIP1 (UniProt Q13829), the log2 fold change is inactive: -0.017.

Regarding TMOD1 (UniProt P28289), the log2 fold change was inactive: 0.076.

With TMEM181 (UniProt Q9P2C4), the log2 fold change is inactive: -0.014.

Regarding TMEM14C (UniProt Q9P0S9), the log2 fold change is inactive: 0.093.

Turning to TMC1 (UniProt Q8TDI8), the log2 fold change was inactive: -0.162.

Take TMEM242 (UniProt Q9NWH2): the log2 fold change is inactive: 0.017.

As for TMEM209 (UniProt Q96SK2), the log2 fold change was inactive: -0.083.

As for TMEM43 (UniProt Q9BTV4), the log2 fold change is inactive: -0.004.

As for TMEM33 (UniProt P57088), the log2 fold change was inactive: 0.003.

Regarding TMEM160 (UniProt Q9NX00), the log2 fold change was inactive: 0.06.

For TMED4 (UniProt Q7Z7H5), the log2 fold change is inactive: 0.047.

Turning to TMEM189 (UniProt A5PLL7), the log2 fold change is inactive: -0.092.
